Binding data for four substances are collected here from paper PMC8511950.

Protein sequences, listed by entry. Tags and fused reporters are not part of them.
UniProt P16370: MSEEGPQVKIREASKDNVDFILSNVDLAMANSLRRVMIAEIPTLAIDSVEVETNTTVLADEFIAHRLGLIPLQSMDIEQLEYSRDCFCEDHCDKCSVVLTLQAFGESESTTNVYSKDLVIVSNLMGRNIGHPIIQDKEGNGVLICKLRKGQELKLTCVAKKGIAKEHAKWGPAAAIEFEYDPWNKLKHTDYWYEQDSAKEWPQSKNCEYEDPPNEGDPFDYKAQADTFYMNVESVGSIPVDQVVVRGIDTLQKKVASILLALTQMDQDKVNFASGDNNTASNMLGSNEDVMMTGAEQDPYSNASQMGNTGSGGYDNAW
UniProt P24783: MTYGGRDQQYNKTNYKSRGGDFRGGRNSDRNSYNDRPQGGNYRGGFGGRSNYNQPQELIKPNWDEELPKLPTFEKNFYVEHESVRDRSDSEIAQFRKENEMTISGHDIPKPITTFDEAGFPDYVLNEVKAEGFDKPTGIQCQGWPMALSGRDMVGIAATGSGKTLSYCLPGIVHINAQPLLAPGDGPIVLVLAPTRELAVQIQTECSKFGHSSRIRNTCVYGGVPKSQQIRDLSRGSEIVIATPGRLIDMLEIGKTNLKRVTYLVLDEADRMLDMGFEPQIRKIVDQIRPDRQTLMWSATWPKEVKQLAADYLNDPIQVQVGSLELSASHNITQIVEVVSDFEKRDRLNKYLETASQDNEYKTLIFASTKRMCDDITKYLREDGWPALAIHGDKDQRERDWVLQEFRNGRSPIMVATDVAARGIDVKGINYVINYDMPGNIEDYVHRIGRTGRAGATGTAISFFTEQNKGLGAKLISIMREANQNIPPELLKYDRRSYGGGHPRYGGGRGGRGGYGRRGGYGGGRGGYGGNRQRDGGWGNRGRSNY
UniProt P32657: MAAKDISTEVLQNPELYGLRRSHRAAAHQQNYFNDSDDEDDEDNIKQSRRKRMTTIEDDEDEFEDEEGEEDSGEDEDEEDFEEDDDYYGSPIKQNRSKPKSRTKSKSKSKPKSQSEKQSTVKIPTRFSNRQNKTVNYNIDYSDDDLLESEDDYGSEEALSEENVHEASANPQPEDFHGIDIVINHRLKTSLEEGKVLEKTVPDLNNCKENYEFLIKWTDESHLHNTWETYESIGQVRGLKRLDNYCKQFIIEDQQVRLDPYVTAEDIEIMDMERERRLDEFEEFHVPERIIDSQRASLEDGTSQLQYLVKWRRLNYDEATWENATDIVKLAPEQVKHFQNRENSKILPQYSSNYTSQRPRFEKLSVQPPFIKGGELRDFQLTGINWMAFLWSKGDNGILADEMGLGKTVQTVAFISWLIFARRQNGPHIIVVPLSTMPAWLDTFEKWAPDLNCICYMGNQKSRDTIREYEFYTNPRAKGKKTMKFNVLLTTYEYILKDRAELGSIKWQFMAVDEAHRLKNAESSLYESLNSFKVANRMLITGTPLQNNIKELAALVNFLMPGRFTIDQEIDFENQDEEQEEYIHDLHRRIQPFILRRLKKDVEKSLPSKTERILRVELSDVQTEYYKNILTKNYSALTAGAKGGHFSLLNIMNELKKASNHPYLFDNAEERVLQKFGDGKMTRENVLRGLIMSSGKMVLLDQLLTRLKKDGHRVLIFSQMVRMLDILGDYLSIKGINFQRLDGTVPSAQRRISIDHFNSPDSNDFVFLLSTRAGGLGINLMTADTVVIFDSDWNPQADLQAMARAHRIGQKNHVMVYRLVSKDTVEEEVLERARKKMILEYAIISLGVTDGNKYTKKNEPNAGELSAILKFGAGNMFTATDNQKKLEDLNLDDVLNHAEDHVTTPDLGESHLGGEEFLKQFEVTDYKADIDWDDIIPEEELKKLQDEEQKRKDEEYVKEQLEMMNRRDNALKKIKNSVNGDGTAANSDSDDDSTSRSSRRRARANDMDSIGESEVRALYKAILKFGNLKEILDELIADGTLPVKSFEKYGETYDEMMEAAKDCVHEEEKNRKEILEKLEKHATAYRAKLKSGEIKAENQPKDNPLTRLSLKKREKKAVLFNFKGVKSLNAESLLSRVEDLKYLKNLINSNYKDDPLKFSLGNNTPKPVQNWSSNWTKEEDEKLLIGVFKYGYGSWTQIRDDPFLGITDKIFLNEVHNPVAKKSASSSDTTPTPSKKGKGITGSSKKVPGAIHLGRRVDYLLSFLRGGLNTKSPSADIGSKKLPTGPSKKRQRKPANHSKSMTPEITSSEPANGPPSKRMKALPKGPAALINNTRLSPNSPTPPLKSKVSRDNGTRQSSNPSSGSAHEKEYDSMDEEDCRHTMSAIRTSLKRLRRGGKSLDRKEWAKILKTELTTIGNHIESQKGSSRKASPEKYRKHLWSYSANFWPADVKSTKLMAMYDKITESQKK
UniProt P32783: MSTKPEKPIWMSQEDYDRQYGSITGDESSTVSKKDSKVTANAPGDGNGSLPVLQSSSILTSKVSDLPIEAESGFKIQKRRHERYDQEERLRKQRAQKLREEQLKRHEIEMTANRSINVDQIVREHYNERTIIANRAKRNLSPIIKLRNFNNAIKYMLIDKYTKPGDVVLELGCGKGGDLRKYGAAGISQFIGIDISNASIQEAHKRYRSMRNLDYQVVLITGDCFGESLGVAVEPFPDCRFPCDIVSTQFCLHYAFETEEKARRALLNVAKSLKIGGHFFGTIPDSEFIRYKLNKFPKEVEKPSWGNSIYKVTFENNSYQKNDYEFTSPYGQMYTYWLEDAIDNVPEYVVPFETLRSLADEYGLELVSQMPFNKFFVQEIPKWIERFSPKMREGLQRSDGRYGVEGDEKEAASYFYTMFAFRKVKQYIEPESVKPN
UniProt Q01159: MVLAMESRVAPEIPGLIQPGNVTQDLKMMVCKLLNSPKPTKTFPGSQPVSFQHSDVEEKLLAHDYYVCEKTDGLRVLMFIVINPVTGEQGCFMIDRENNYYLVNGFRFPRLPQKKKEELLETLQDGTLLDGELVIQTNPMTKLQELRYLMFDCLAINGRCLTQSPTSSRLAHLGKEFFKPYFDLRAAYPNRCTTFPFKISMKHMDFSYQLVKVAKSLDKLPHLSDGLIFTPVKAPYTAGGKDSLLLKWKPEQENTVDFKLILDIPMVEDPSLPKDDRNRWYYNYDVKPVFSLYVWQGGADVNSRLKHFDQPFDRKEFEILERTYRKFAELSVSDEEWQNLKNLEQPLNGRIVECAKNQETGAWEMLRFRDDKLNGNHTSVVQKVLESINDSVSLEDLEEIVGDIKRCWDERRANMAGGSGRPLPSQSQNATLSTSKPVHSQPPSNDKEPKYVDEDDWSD

No constants are given. Whether binding was seen depends on the method and setting. Binding seen in cells or lysates may run through a third protein. Some results given as binding are weak or reduced against the parent protein; the word gives no strength.

The target in the test is FLAG-tagged Rpb3 (S. cerevisiae) (UniProt P16370). Briefly: co-IP; Rpb3-FLAG precipitated with anti-Flag agarose from whole cell lysates of uncrosslinked wildtype and spt6-1004 cells at 30 °C and after the shift to 37 °C; IP buffer 20 mM Hepes-KOH pH 7.6, 125 mM potassium acetate, 1% NP-40; 2 h at 4 °C; Western blot. Background: Immunoblotting shows a protein as a band on a membrane.
Regarding Dbp2 (from UniProt P24783 1-546), the binding entry is “binds”.

With Chd1 (from UniProt P32657 1-1468), the binding entry was “binds”.

For the substance “Abd1 (from UniProt P32783 1-436) (enzyme)”, the binding result is listed as “binds”.

With “Ceg1 (from UniProt Q01159 1-459) (enzyme)”, the binding entry is “binds”.
